The values below come from PubChem BioAssay AID248 (DTP/NCI, 2004).

The list does not hold the whole screen: it gathers tests that were run many times, whatever their T/C, doses with no T/C, and many T/C values between a quarter and a half above the control. Further doses and runs are listed elsewhere. T/C: endpoint of the treated group in % of that of the vehicle group. Some doses have a count of surviving animals in place of a T/C: the source files T/C as zero there, which appears to mark a toxic dose or a test without result, not a measured value. Some doses without a T/C left all or most animals alive at the check, yet need not have been tolerated: the source hardly ever lists a survival T/C far under the control, and the zero likely stands for such cases as well. Survivors were counted at the toxicity check, usually on the fifth day, unless a day is given; later deaths do not show. Schedule codes are those of the source, read here as Q, the interval in days (D) or hours (H), X, the number of doses. Some schedule codes hold Z or #, which are not explained here. For survival time, this PubChem deposit counts one and a half times the control or more as active, and values a quarter to a half above the control carry no call in these data; other NCI protocols may use other cut-offs.

This assay deals with L1210 leukemia ip in BDF1 mice, survival T/C. Put plainly: NCI In Vivo Anticancer Drug Screen. Data for tumor model L1210 Leukemia (intraperitoneal) in B6D2F1 (BDF1) mice. Particulars: T/C endpoint: mean survival time, higher T/C = longer survival.
Where [1] appears, read: dose: 400.0 mg/kg/injection, schedule: Q01DX009 (ip), vehicle: Klucel (hydroxypropylcellulose) (HPC).
Where [2] appears, read: dose: 400.0 mg/kg/injection, schedule: Q04DX003 (ip), vehicle: Klucel (hydroxypropylcellulose) (HPC).
The mark [3] stands for this setting: dose: 3.0 mg/kg/injection, schedule: Q01DX Z (ip), vehicle: saline.
[4] abbreviates: dose: 5.0 mg/kg/injection, schedule: Q01DX Z (ip), vehicle: saline.
Where [5] appears, read: dose: 400.0 mg/kg/injection, schedule: Q01DX009 (ip), vehicle: saline with Tween-80.
The mark [6] stands for this setting: dose: 400.0 mg/kg/injection, schedule: Q04DX003 (ip), vehicle: saline.
Setting [7] is: dose: 400.0 mg/kg/injection, schedule: Q04DX003 (ip), vehicle: saline with Tween-80.
The mark [8] stands for this setting: dose: 400.0 mg/kg/injection, schedule: Q01DX001 (ip), vehicle: saline with Tween-80.
The mark [9] stands for this setting: dose: 200.0 mg/kg/injection, schedule: Q01DX009 (ip), vehicle: saline.

Regarding `O=C1C=CC(=O)c2c(O)c(CO)c(CO)c(O)c21`, the survivor count is recorded as 1 of 6 (dose: 3.12 mg/kg/injection, schedule: Q01DX009 (ip), vehicle: water); 1 of 6 (dose: 6.25 mg/kg/injection, schedule: Q01DX009 (ip), vehicle: water); 0 of 6 (dose: 12.5 mg/kg/injection, schedule: Q01DX009 (ip), vehicle: water); 2 of 6 (dose: 25.0 mg/kg/injection, schedule: Q01DX009 (ip), vehicle: water); 0 of 6 (dose: 50.0 mg/kg/injection, schedule: Q01DX009 (ip), vehicle: water); 0 of 6 (dose: 100.0 mg/kg/injection, schedule: Q01DX009 (ip), vehicle: water). Moreover, the survivor count is, setting by setting: (dose: 200.0 mg/kg/injection, schedule: Q01DX009 (ip), vehicle: water) 0 of 6; (dose: 400.0 mg/kg/injection, schedule: Q01DX009 (ip), vehicle: water) 0 of 6. Take `COc1ccc(CC(N)C(=O)O)cc1` (configuration not stated): the survivor count under setting [1] was 3 of 6. For the compound `CN1C2CCC1CC(=C(C#N)C(N)=O)C2`, the survivor count is 0 of 6 (dose: 12.5 mg/kg/injection, schedule: Q01DX009 (ip), vehicle: Klucel (hydroxypropylcellulose) (HPC)); 6 of 6 (dose: 25.0 mg/kg/injection, schedule: Q04DX003 (ip), vehicle: Klucel (hydroxypropylcellulose) (HPC)); 2 of 6 (dose: 50.0 mg/kg/injection, schedule: Q04DX003 (ip), vehicle: Klucel (hydroxypropylcellulose) (HPC)); 0 of 6 (dose: 100.0 mg/kg/injection, schedule: Q04DX003 (ip), vehicle: Klucel (hydroxypropylcellulose) (HPC)); 0 of 6 (dose: 200.0 mg/kg/injection, schedule: Q04DX003 (ip), vehicle: Klucel (hydroxypropylcellulose) (HPC)); 0 of 6 under setting [2]. On to `O=P(N1CCCC1)(N1CC1)N1CC1`, for which the T/C by setting is: under setting [3], 147 % of control; under setting [4], 140 % of control; (dose: 11.5 mg/kg/injection, schedule: Q01DX Z (ip), vehicle: saline) 134 % of control. For the same compound, the survivor count is recorded as 6 of 6 under setting [3]; 6 of 6 under setting [4]; 6 of 6 (dose: 17.0 mg/kg/injection, schedule: Q01DX Z (ip), vehicle: saline).

In the case of `Cc1ccc(S(=O)(=O)c2ccc(S(=O)(=O)c3ccccc3)cc2)cc1`, the survivor count (dose: 200.0 mg/kg/injection, schedule: Q01DX001 (ip), vehicle: saline) was 6 of 6. `CN(C)CCCNCC(=O)N1CCN(C(=O)CNCCCN(C)C)CC1`: the survivor count by setting is: (dose: 200.0 mg/kg/injection, schedule: Q01DX001 (ip), vehicle: carboxymethylcellulose (CMC)) 2 of 4; (dose: 400.0 mg/kg/injection, schedule: Q01DX001 (ip), vehicle: carboxymethylcellulose (CMC)) 2 of 4. Regarding `CC(=O)NCCc1ccc(S(=O)(=O)F)cc1`, the survivor count under setting [5] is 1 of 6. On to `Cc1c[n+]([O-])ccc1[N+](=O)[O-]`, for which the survivor count reads like this: (dose: 200.0 mg/kg/injection, schedule: Q04DX003 (ip), vehicle: saline) 3 of 6; under setting [6], 1 of 6. Turning to `CCCC/C=C/Br`, the survivor count (dose: 400.0 mg/kg/injection, schedule: Q01DX009 (ip), vehicle: acetone) is 0 of 6. On to `CCCCOP(=O)(/C=C/c1cccs1)OCCCC`, for which the survivor count under setting [7] is recorded as 2 of 6.

Turning to `NC(N)=N/N=C\c1ccc(OCc2ccccc2)cc1`, the survivor count (dose: 60.0 mg/kg/injection, schedule: Q01DX Z (ip), vehicle: saline) is on record as 1 of 6 and the survivor count (dose: 120.0 mg/kg/injection, schedule: Q01DX Z (ip), vehicle: saline) is recorded as 0 of 6.

As for `c1ccn(-c2nccs2)c1`, under setting [7], the survivor count was 0 of 6. `C=CCCCCCCCCC(=O)NC[n+]1cccc(O)c1`: the survivor count is recorded as 6 of 6 (dose: 200.0 mg/kg/injection, schedule: Q04DX003 (ip), vehicle: saline with Tween-80) and 0 of 6 under setting [7].

With `CCCNCC1OC(OC)C2OC(C)(C)OC12` (configuration not stated), the survivor count (dose: 50.0 mg/kg/injection, schedule: Q01DX009 (ip), vehicle: saline) was 6 of 6. Take `C/C(=C\Cl)C(=O)O`: the survivor count under setting [6] is 1 of 6. Take `C=CS(=O)(=O)c1ccccc1`: the survivor count (dose: 200.0 mg/kg/injection, schedule: Q01DX009 (ip), vehicle: Klucel (hydroxypropylcellulose) (HPC)) is reported as 0 of 6.

For `CC1=CC(=N/S(=O)(=O)c2ccccc2)/C2CC(C)=C(C)CC2/C1=N\S(=O)(=O)c1ccccc1` (configuration not stated), the survivor count under setting [2] is 6 of 6. As for `N#COc1cccc(OCCOc2cccc(OC#N)c2)c1`, under setting [8], the survivor count is recorded as 5 of 6. Take `Cc1cc(C)c(NC(=S)NC(=O)C(C)Oc2ccccc2)c(C)c1` (configuration not stated): the survivor count under setting [5] was 3 of 3. For the compound `[NH-]c1ccccc1C(=O)O.[NH-]c1ccccc1C(=O)O.[Ni+2]`, for the setting “dose: 100.0 mg/kg/injection, schedule: Q01DX009 (ip), vehicle: saline with Tween-80”, the survivor count is given as 3 of 6.

Consider `CCN(CC)CCNc1nc(N)nc2c1nnn2CC`, for which the survivor count (dose: 400.0 mg/kg/injection, schedule: Q04DX003 (ip), vehicle: gum acacia) is given as 1 of 6.

As for `CC(C)NC(=O)C1CC2c3cccc4c3c(cn4CN(C)C)CC2N(C)C1` (configuration not stated), the T/C (dose: 50.0 mg/kg/injection, schedule: Q04DX002 (ip), vehicle: saline) was 125 % of control. As for `COc1cc(CC2c3cc(OC)c(OC)cc3CCN2C)c(Oc2cc3c(cc2OC)-c2c(OC)c(OC)c(OC)c4c2C(C3)N(C)CC4)cc1OC` (configuration not stated), the survivor count under setting [7] was 1 of 6. With `O=C(C=C(C(F)(F)Cl)C(F)(F)Cl)c1cccs1`, the survivor count (dose: 20.0 mg/kg/injection, schedule: Q01DX009 (ip), vehicle: saline) is given as 0 of 6. Take `CC1=NN(c2ccc(S(=O)(=O)O)cc2)C(=O)/C1=C/c1ccc(Cl)cc1`: the survivor count (dose: 100.0 mg/kg/injection, schedule: Q04DX003 (ip), vehicle: saline) was 6 of 6. For the compound `CCOC(=O)c1cc(OC(C)=O)c2c(ccc3cc(OC)ccc32)c1CC`, under setting [9], the survivor count was 6 of 6. In the case of `FC(F)(F)c1cccc(B2OCCNCCO2)c1`, under setting [7], the survivor count is reported as 2 of 6. For `O=C(CC(=O)c1ccccc1)Nc1ccccc1`, the survivor count is 6 of 6 (dose: 200.0 mg/kg/injection, schedule: Q01DX009 (ip), vehicle: gum acacia) and 3 of 3 (dose: 400.0 mg/kg/injection, schedule: Q01DX009 (ip), vehicle: gum acacia). On to `CCOc1nc(N)nc(N)c1-c1ccc(Cl)cc1`, for which, for the setting “dose: 400.0 mg/kg/injection, schedule: Q04DX002 (ip), vehicle: saline with Tween-80”, the survivor count is recorded as 0 of 3.

Take `CSc1nnn(C(C)(C)C)n1`: the survivor count (dose: 400.0 mg/kg/injection, schedule: Q01DX001 (ip), vehicle: acetone) is 6 of 6. In the case of `OCCCCc1nccc2c1[nH]c1ccccc12`, where the note is “dose: 100.0 mg/kg/injection, schedule: Q01DX009 (ip), vehicle: saline”, the survivor count is 3 of 6. With `O=C(NCCl)Nc1ccccc1`, the survivor count (dose: 200.0 mg/kg/injection, schedule: Q04DX002 (ip), vehicle: saline + alcohol) is 1 of 3 and the survivor count (dose: 400.0 mg/kg/injection, schedule: Q04DX002 (ip), vehicle: saline + alcohol) is on record as 0 of 3. In the case of `O=C(O)CCCCSc1ncnc2nc[nH]c12`, the T/C (dose: 720.0 mg/kg/injection, schedule: Q01DX009 (ip), vehicle: saline with Tween-80) was 126 % of control. Take `Cc1ccc(OCCBr)cc1`: under setting [1], the survivor count is listed as 6 of 6.

Consider `S=C(NCc1ccco1)Nc1ccccc1Cl`, for which the survivor count under setting [1] is 0 of 6. In the case of `CCCNC(C)C(=O)c1ccccc1` (configuration not stated), the survivor count runs as follows: under setting [9], 0 of 6; (dose: 400.0 mg/kg/injection, schedule: Q01DX009 (ip), vehicle: saline) 0 of 6.

For the compound `CC(=O)/C(=C/c1ccccc1)N=P(c1ccccc1)(c1ccccc1)c1ccccc1`, for the setting “dose: 400.0 mg/kg/injection, schedule: Q01DX001 (ip), vehicle: saline”, the survivor count is given as 6 of 6. Take `C=C1CC(C)(C)C(c2ccccc2)OC1=O` (configuration not stated): the survivor count under setting [8] is given as 0 of 3.
